## Percent effect of library compounds

Source: ChEMBL document CHEMBL3988442, “University of Dundee, Small-Polar-MMV Screening Library” (2021).

Values are the deposited “Percent Effect”, in %. The controls that fix the scale are not given in the record; negative values are as filed. This is an unselected part of the compounds tested.

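Whole-parasite assay of Trypanosoma brucei over 72 hours; the read-out is not stated. Compounds at 30 µM. Direction is inferred from retests: higher values go with stronger inhibition. Values scatter widely below zero; nearly all retest evidence comes from the higher of the two concentrations used. Of about 64,000 compounds tested this way, about 940 (1.5%) reached 50% or more in at least one test.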

compound | effect
COc1c(CNC(c2ccc(F)cc2)c2nccn2C)c(C)nn1C (configuration not stated) | 4.885%
CC(=O)N1CCN(C(=O)NCCCN(C(C)C)S(C)(=O)=O)CC1 | -53.8%
COCc1cncc2c1CCN(Cc1cccs1)C2.O=C(O)C(F)(F)F.O=C(O)C(F)(F)F | -85.33%
O=C(NC1CCCN(c2ncccn2)C1)c1cn2ccccc2n1 (configuration not stated) | 4.018%
CCOc1cc(C(=O)N2CCOCC2)cc2occc12 | -48.94%
O=C1CCNc2ccc(F)cc2CN1Cc1ccco1 | -37.07%
Cc1ccc(CNC(=O)N(Cc2ccccc2F)C2CC2)cn1 | 0.8069%
CC(C)(O)CN1CCN(C(=O)c2cc3ccccc3c(=O)[nH]2)CC1 | -4.648%
CN(c1cccnn1)C1CCN(C(=O)c2ccc3c(c2)COC3)CC1 | 22.21%
COCCNC(=O)N1CCC(NC(C)C)CC1 | -50.27%
CCCSc1ccccc1NC(=O)N1CCN(C(=O)c2ccc[nH]2)CC1 | -42.77%
O=C(O)C(F)(F)F.O=C(O)C(F)(F)F.[H][C@@]12COC[C@]1(COc1ccccn1)CN(c1ncc(F)cn1)C2 | -2.43%
CCn1nnnc1-c1cccc(NCc2nc(C)ccc2O)c1 | 6.849%
[H][C@]12CC[C@]([H])(CN(Cc3ccccc3C#N)C1)N(Cc1cscn1)C2=O | -4.173%
c1cc(CNCC2CNc3ccnn3C2)cc(N2CCOCC2)n1 (configuration not stated) | -2.356%
CCCN1CCc2[nH]nc(C(=O)N3CCNC(=O)C3)c2C1.O=C(O)C(F)(F)F.O=C(O)C(F)(F)F | -53.1%
CCOc1ccc(NC(=O)NCCCN(C)S(C)(=O)=O)cc1C | 6.482%
COc1ccc2nc(CCNC(=O)c3cc(CC(C)C)no3)[nH]c2c1 | 18.04%
O=C(NCC1(O)CCC1)NC(c1cc(F)ccc1F)C1CC1 (configuration not stated) | 5.99%
COc1ccc(Cl)cc1S(=O)(=O)N(C)CC(=O)Nc1cccnc1 | -46.12%
Cc1c(Br)cc2c(c1C)OCC(N(C)C)C2=O (configuration not stated) | 0.8254%
CC(C)N(CCCNC(=O)C1CCCN(C(N)=O)C1)S(C)(=O)=O (configuration not stated) | 6.156%
CC(=O)N1CCCN(C(=O)Cc2c(C)nc(C)[nH]c2=O)CC1 | -38.05%
Cc1ccc(-c2ccc(CC3NCCN(C)C3=O)cc2)cc1.Cl (configuration not stated) | -13.76%
O=C(O)C(F)(F)F.O=C(O)C(F)(F)F.c1cnc(N2CCC3(CCN(CC4CC4)CC3)CC2)nc1 | 8.512%
C/N=C1/c2cc3cc(OC)ccc3n2CCN1C | 8.815%
O=C(O)C(F)(F)F.[H][C@@]12CN(C(=O)c3ccncc3F)C[C@]1([H])OCCN2C(C)C | -53.58%
[H][C@]12CN(CC=C(C)C)C[C@@]1(C(=O)O)CN(C(=O)c1ccc(CO)cc1)C2 | -16.82%
[H][C@@]12CN(CCOC)C[C@]1([H])OCCN2c1ccnc(N(C)C)n1 | -52.7%
O=C(CCCNc1ncccn1)N1CCCC(n2cccn2)C1 (configuration not stated) | -5.463%
CCCS(=O)(=O)NCC(C)c1ccc(F)c(F)c1 (configuration not stated) | -46.49%
COc1ccc(CC(C)Nc2cccc(F)c2)cc1 (configuration not stated) | -41.75%
Cc1nn(C)cc1-c1ccnc(NCCN)n1 | 4.643%
COc1ccnc(N2Cc3cnc(C(C)(C)C)nc3C2)n1 | -5.511%
CC(=O)N1C[C@@H](F)[C@@H](OCc2nc3ccc(C#N)cc3[nH]2)C1 | -8.875%
CCn1ccnc1C1CCN(C(=O)Nc2ccc(OC)cc2)CC1 | -6.404%
CC(=O)N1CCC2(CC1)CNc1c(F)cccc12.Cl | -53.57%
O=C(Nc1ccc(CCN2CCC(O)CC2)cc1)C1CCOCC1 | -1.438%
COC(=O)c1cc(C(=O)N2CCCC(C)C2)n(-c2ccccc2)n1 (configuration not stated) | 11%
CC(NC(=O)Cn1cc(-c2ccccc2)cn1)C1CC1 (configuration not stated) | 8.334%
O=C(NCCOc1ncc(Cl)cc1Cl)c1ccncc1F | 14.34%
[H][C@]12CC[C@]([H])(CN(S(=O)(=O)c3cn(C)cn3)C1)N(Cc1cscn1)C2=O | -29.75%
CC(C)c1cc(C(=O)NCc2nc(-c3ccc(F)cc3)n[nH]2)n[nH]1 | -128.9%
Cc1ccc(CNC(=O)N2CCN(S(C)(=O)=O)CC2)n1C | -1%
CN(c1cccc2ccccc12)S(=O)(=O)c1cc(C(=O)O)cs1 | -3.8%
CCC(NC(=O)C1CCN(S(C)(=O)=O)CC1)c1ccc(OC)c(C)c1 (configuration not stated) | 10.4%
COCC(=O)N[C@H](C)c1onc(-c2ccc(Cl)cc2)c1C(=O)O | -20.09%
CN1CCN(C(=O)C2(NC(N)=O)CCCCC2)Cc2ccccc21 | -29.99%
Cc1cc2nc(-c3ccccc3)cc(NCC3CCCOC3)n2n1 (configuration not stated) | 87.98%
CS(=O)(=O)NCc1cnc2n1CCN(Cc1ccccn1)CC2.O=C(O)C(F)(F)F | -4.908%
Cc1ccccc1[C@@H]1CN(CCOCCO)C[C@H]1C(=O)O | -69.43%
CCCC(=O)Nc1ccc2c(c1)C1(CCOCC1)CN2CCOC.O=C(O)C(F)(F)F | -62.93%
Cc1ccc(CNC2CCc3nc(C(C)C)nn3C2)o1 (configuration not stated) | -10.55%
COc1cc(CCC(=O)N2CCC(c3cc4nccnc4[nH]3)CC2)on1 | 60.69%
CC(C)Nc1nc2c(c(NC3CC3)n1)CN(C(=O)c1ccsc1)CC2 | -10.96%
CCCc1cc(C(=O)N2CCOC(c3nc(-c4cccs4)no3)C2)no1 (configuration not stated) | 23.75%